The list shows a part of the results.
What was measured:
Experiment in all cases: log2 fold change, soluble protein after heating vs DMSO (PISA); higher = thermal stabilisation; K562 cells, 10 uM, 30 min; active = over 0.2 and 3.5 SD of the protein, either way, in both replicates (recomputed)
[1] = compound: C1=CC=C(C=C1)[C@H](COC2=CC3=C(C=C2)NC(=O)N3)NC(=O)C4=CC=CN(C4=O)CC5=CC(=C(C=C5)F)F
Outline: (§1)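 Quantification of soluble protein used TMTpro 16plex LC-MS/MS, with channel sums equalised. Samples were the supernatant after 21,000xg for 90 min of pooled aliquots from K562 cells (2×10^6 cells/mL) treated with 10 μM compound for 30 min, heated for 3 min over 48°C-58°C, and extracted in PBS with 0.5% NP-40 at 4°C. Values, from duplicates, describe thermal stability against control samples on a log2 fold-change scale.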

Chains of the proteins cited; added tags and fusions are not shown. Lines headed by an entry give the natural chain unless they say otherwise; changes in a name come on top.
UniProt Q8WVT3: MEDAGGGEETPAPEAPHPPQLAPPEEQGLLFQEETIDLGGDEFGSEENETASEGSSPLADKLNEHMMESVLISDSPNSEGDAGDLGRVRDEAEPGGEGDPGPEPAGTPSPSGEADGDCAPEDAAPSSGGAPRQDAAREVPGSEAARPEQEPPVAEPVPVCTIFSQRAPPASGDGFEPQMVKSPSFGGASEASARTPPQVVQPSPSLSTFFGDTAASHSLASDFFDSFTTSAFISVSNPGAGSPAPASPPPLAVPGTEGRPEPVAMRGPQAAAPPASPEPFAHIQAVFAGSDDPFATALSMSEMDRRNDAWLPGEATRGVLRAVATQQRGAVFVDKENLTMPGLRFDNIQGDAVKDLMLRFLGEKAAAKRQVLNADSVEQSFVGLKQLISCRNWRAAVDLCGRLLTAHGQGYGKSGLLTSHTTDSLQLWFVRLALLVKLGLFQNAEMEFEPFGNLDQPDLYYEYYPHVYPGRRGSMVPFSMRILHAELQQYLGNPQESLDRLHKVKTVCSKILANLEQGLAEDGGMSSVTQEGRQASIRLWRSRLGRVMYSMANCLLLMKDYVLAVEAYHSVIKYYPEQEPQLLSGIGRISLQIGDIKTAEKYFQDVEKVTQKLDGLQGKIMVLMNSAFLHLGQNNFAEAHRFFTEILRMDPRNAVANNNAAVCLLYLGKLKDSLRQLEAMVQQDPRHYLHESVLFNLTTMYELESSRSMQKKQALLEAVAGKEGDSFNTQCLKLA
UniProt P02585, whole entry, looked up: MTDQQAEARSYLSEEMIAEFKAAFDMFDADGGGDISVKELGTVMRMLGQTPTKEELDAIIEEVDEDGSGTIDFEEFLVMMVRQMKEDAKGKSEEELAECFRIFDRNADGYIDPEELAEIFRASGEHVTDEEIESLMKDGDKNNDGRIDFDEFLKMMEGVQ
UniProt Q9H3S4: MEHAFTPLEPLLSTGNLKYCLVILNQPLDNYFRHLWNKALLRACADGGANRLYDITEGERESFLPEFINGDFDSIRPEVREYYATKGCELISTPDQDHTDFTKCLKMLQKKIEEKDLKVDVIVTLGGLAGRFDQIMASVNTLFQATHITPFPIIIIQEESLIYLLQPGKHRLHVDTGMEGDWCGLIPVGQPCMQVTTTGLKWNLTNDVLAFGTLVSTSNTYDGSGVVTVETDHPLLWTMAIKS
UniProt Q8WW01: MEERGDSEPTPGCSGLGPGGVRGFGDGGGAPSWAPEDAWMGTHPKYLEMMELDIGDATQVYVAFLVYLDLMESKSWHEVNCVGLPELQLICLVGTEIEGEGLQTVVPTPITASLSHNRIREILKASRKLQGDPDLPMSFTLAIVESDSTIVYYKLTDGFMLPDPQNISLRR
UniProt P36406: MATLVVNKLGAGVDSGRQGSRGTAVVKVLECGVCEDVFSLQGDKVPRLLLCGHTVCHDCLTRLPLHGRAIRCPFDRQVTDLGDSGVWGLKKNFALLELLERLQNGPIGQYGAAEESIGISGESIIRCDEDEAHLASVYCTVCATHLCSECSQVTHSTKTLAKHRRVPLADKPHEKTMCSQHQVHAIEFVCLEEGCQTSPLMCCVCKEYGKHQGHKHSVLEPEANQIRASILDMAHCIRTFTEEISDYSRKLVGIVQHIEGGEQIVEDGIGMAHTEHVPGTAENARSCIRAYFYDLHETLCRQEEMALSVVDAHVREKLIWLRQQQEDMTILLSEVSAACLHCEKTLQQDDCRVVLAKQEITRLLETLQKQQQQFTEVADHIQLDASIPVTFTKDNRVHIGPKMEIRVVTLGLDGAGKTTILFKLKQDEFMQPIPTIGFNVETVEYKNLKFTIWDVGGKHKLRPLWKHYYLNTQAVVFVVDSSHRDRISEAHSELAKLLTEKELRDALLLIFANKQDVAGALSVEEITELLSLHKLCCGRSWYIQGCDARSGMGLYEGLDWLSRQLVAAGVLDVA
UniProt Q9C0C2: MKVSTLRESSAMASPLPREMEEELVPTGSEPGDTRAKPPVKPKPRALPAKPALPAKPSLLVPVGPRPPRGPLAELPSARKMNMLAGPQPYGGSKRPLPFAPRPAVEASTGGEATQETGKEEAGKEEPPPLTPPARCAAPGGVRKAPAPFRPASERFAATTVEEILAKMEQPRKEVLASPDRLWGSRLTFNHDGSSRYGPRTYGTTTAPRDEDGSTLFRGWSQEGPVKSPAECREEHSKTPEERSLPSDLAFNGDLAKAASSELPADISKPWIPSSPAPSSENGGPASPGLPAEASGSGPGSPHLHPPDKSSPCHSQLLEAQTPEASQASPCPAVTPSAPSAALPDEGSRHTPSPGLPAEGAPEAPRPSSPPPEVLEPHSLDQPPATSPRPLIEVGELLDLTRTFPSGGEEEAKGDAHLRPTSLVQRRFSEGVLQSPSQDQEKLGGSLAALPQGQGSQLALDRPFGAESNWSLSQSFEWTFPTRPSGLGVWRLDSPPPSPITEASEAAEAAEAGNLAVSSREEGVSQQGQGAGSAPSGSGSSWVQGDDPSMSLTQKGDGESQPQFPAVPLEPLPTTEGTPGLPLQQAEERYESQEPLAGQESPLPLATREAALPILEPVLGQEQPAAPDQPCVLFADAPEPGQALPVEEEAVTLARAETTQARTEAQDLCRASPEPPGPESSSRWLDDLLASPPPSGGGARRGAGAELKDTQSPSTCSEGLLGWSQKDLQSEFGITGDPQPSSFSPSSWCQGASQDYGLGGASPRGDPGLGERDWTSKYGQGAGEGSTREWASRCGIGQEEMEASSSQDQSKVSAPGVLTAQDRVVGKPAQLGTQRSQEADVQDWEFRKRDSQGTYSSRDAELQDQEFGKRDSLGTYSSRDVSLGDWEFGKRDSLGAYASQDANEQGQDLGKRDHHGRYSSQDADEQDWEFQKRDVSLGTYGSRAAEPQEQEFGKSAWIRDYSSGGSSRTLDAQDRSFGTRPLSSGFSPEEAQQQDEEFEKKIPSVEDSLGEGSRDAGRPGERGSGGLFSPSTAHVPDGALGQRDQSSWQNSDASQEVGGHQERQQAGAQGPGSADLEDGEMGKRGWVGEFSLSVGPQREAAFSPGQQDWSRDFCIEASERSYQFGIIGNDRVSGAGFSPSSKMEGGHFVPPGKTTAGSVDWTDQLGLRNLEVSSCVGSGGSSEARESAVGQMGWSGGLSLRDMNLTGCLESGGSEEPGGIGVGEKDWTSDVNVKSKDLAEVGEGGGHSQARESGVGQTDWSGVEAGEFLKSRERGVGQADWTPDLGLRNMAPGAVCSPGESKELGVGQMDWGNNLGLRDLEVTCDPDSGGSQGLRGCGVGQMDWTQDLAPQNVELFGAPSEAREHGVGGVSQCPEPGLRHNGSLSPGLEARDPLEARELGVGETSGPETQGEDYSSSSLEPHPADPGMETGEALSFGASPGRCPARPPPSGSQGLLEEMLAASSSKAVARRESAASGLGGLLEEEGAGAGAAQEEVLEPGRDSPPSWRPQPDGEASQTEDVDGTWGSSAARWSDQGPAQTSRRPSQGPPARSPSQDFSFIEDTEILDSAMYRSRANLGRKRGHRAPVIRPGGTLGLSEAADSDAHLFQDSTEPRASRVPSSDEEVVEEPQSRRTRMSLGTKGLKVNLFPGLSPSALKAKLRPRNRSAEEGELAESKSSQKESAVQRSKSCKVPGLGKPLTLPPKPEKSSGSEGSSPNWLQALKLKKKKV
UniProt Q9Y3Q8: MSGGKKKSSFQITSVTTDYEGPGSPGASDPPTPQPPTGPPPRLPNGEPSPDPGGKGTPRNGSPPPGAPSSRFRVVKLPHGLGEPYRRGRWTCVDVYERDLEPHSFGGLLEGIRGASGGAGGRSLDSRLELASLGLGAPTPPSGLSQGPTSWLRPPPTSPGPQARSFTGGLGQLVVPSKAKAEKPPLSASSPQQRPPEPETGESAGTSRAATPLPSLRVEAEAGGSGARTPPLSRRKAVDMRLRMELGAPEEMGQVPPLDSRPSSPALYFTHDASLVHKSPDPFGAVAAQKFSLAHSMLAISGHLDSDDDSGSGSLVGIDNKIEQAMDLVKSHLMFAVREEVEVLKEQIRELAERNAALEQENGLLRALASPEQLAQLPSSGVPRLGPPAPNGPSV
UniProt Q15654: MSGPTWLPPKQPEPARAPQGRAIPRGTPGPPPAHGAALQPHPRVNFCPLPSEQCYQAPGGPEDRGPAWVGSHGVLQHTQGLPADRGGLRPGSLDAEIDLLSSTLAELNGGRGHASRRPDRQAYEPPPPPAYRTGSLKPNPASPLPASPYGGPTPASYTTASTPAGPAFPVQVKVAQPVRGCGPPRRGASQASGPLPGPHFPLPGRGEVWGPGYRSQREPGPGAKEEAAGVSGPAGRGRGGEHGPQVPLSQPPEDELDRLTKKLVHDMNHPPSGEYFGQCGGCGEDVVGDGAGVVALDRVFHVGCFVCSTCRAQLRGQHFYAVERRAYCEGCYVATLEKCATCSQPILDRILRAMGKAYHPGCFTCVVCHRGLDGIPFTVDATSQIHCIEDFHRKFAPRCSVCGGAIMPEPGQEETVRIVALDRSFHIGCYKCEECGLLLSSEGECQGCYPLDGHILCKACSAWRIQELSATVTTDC
UniProt O43617, whole entry, looked up: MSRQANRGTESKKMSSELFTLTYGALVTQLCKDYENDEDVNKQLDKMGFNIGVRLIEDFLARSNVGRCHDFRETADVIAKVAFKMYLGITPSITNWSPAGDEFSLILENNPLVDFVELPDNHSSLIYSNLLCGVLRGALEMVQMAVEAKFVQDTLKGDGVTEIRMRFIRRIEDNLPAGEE
UniProt Q9H4I3: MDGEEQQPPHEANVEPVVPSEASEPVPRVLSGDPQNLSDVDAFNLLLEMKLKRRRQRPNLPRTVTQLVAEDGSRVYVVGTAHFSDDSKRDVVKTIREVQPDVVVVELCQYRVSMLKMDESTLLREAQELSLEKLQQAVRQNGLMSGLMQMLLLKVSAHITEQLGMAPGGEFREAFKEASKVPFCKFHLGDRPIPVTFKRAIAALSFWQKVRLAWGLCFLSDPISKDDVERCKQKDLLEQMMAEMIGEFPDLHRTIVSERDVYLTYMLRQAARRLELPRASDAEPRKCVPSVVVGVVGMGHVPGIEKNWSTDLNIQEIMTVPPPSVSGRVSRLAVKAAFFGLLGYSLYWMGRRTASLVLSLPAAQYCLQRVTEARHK
UniProt P13693: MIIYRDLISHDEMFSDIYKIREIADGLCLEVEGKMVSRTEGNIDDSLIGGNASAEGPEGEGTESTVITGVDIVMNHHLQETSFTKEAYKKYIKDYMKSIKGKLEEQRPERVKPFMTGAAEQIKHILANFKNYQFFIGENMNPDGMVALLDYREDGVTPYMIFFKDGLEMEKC
UniProt Q9BQ61: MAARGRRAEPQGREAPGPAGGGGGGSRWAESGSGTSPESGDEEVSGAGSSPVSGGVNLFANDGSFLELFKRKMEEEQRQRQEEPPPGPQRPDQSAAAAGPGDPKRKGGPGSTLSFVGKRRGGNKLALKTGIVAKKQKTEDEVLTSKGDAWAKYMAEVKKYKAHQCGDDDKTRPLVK
UniProt P62995: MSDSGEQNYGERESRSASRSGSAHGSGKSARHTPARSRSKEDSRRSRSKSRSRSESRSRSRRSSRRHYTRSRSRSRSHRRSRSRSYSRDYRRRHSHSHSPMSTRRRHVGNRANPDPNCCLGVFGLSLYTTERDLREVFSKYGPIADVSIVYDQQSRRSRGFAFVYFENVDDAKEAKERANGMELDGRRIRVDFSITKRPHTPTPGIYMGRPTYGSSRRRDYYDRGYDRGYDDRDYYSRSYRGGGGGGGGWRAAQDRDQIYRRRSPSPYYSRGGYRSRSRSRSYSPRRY
UniProt Q9Y5L0: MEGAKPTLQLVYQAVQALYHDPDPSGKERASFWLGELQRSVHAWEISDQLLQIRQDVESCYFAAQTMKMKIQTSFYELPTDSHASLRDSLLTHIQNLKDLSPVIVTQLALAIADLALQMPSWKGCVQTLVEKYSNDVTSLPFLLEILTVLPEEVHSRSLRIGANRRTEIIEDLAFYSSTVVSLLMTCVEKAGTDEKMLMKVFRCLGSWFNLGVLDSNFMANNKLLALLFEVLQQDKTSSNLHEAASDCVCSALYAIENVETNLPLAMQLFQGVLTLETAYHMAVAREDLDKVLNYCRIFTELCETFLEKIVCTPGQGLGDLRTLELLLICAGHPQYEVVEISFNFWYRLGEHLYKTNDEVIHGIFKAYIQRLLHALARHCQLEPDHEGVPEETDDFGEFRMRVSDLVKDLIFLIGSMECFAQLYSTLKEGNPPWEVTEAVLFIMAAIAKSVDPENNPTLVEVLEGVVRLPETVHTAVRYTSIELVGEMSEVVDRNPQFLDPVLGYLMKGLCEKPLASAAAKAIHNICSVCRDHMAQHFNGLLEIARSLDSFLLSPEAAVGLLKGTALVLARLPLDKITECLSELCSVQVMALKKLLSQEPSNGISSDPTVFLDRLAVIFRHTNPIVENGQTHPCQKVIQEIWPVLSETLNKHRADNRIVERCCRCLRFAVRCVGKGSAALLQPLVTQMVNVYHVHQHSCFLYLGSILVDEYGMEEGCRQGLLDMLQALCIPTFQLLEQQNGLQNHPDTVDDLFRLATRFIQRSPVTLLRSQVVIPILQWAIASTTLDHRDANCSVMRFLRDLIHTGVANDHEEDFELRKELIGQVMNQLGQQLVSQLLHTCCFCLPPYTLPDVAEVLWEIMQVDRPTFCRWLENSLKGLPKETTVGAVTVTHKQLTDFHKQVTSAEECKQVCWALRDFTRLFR

[2] = compound: CC1=C(SC2=C1C(=N[C@H](C3=NN=C(N32)C)CC(=O)N)C4=CC=C(C=C4)Cl)C
Outline: as §1

[3] = compound: CC1=C2C(=CC=C1)N=C(N(C2=O)C3=CC=CC=C3C)CN4C=NC5=C(N=CN=C54)N
Outline: as §1

[4] = compound: Cc1sc2c(c1C)C(c1ccc(Cl)cc1)=N[C@@H](CC(=O)OC(C)(C)C)c1nnc(C)n1-2
Outline: as §1

[5] = compound: c1ccc([C@@H]2C[C@H]2NC2CCNCC2)cc1
Outline: as §1

Measured: log2 fold change

TRAPPC12 (UniProt Q8WVT3)
inactive: [1] -0.099 | [2] 0.014 | [3] 0.077 | [4] 0.046 | [5] -0.005

TPP2 (UniProt P29144)
inactive: [1] 0.06 | [2] -0.209 | [3] -0.127 | [4] -0.1 | [5] -0.001

TRAF6 (UniProt Q9Y4K3)
inactive: [1] -0.027 | [2] 0.086 | [3] -0.032 | [4] -0.012 | [5] -0.029

TNNC2 (UniProt P02585)
inactive: [1] 0.043 | [2] 0.004 | [3] 0.06 | [4] -0.624 | [5] 0.031

TPK1 (UniProt Q9H3S4)
inactive: [1] 0.022 | [2] 0.168 | [3] -0.052 | [4] 0.082 | [5] 0.017

TRMT1L (UniProt Q7Z2T5)
inactive: [1] 0.012 | [2] -0.297 | [3] -0.256 | [4] 0.126 | [5] 0

TSEN15 (UniProt Q8WW01)
inactive: [1] 0.018 | [2] 0.218 | [3] 0.135 | [4] -0.105 | [5] -0.064

TRAPPC5 (UniProt Q8IUR0)
inactive: [1] -0.051 | [2] 0.062 | [3] 0.046 | [4] -0.025 | [5] -0.012

TRIM23 (UniProt P36406)
inactive: [1] 0.023 | [2] 0.122 | [3] 0.049 | [4] -0.096 | [5] -0.05

TPD52L2 isoform 7 (UniProt O43399)
inactive: [1] 0.017 | [2] 0.03 | [3] 0.001 | [4] 0.006 | [5] 0.047

TNKS1BP1 (UniProt Q9C0C2)
inactive: [1] 0.02 | [2] -0.009 | [3] 0.021 | [4] 0.002 | [5] 0.024

TSC22D4 (UniProt Q9Y3Q8)
inactive: [1] -0.002 | [2] 0.037 | [3] 0.01 | [4] -0.016 | [5] -0.037

TRIP6 (UniProt Q15654)
inactive: [1] 0.004 | [2] 0.027 | [3] 0.017 | [4] -0.043 | [5] 0.006

TRAPPC3 (UniProt O43617)
inactive: [1] -0.025 | [2] 0.03 | [3] 0.036 | [4] -0.024 | [5] 0.007

TOMM70 (UniProt O94826)
inactive: [1] -0.012 | [2] 0.026 | [3] 0.055 | [4] -0.01 | [5] -0.029

TRABD (UniProt Q9H4I3)
inactive: [1] 0.005 | [2] -0.034 | [3] -0.054 | [4] 0.027 | [5] -0.054

TPT1 (UniProt P13693)
inactive: [1] -0.048 | [2] 0.067 | [3] 0.022 | [4] -0.018 | [5] -0.027

TOM1 isoform 2 (UniProt O60784)
inactive: [1] 0.044 | [2] 0.001 | [3] -0.074 | [4] 0.046 | [5] 0.008

TRAM2 (UniProt Q15035)
inactive: [1] 0.015 | [2] 0.057 | [3] 0.128 | [4] -0.009 | [5] -0.106

TRMT10C (UniProt Q7L0Y3)
inactive: [1] -0.018 | [2] 0.029 | [3] 0.085 | [4] 0.005 | [5] -0.08

TRAFD1 (UniProt O14545)
inactive: [1] -0.004 | [2] 0.032 | [3] -0.032 | [4] 0.026 | [5] 0.001

TRIR (UniProt Q9BQ61)
inactive: [1] 0.032 | [2] 0.003 | [3] -0.049 | [4] -0.006 | [5] -0.012

TRA2B (UniProt P62995)
inactive: [1] 0.227 | [2] -0.349 | [3] -0.11 | [4] 0.318 | [5] 0.048

TNPO3 (UniProt Q9Y5L0)
inactive: [1] -0.035 | [2] 0.063 | [3] 0.014 | [4] -0.022 | [5] -0.007

From the supplement of paper PMC10849652
